Data taken from PMC5075406.
These are yes or no findings as the source states them, for the method shown. In cells and extracts the contact can be indirect. Binding can be weak; no strength is given. Tags and fused reporters may be left off the sequences shown.

T1: mGrn-Flag (mouse) (UniProt P28798)
T1 sequence: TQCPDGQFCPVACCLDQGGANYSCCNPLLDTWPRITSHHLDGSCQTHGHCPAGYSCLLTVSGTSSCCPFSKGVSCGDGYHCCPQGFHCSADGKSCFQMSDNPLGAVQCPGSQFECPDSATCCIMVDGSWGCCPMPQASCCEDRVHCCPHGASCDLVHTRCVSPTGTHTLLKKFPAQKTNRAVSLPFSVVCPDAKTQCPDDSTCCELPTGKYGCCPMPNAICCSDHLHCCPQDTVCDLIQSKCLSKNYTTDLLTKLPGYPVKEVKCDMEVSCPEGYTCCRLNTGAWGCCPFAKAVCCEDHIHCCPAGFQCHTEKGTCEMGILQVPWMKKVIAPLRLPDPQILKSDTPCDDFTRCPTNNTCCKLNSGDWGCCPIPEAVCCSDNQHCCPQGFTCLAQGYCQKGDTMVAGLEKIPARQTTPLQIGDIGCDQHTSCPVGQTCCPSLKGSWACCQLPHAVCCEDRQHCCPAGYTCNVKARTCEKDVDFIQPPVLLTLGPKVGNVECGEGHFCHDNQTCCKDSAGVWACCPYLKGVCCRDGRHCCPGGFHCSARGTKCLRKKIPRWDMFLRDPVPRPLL

B1: mGrn-Flag (protein, UniProt P28798 18-589)
chain: T1 sequence

Tests used:
mGrn-Flag (mouse) = target: T1, mGrn-Flag (mouse); assay: co-IP; HEK293 cells transiently co-transfected with Notch1-ECD-V5 or Notch1-ICD-V5 and progranulin-Flag (human proteins; repeated with the mouse proteins); lysate supernatants; IP with anti-Flag or anti-V5 on Immunosorb A overnight at 4 °C; immunoblot with anti-V5 and anti-Flag
mNotch1 ECD-V5 (mouse) = assay: as above

Molecule | binding (mGrn-Flag (mouse)) | binding (mNotch1 ECD-V5 (mouse))
mNotch1 ECD-V5 (mouse) (domain or fragment) | binds | 
B1 |  | binds
